Measurements taken from the supplement of paper PMC12067093, “Discovery and optimisation of a covalent ligand for TRIM25 and its application to targeted protein ubiquitination” (Chemical Science, 2025).
The other results are listed elsewhere or left out.

Protein sequences, listed by entry. Tags and fused reporters are not part of them. Lines headed by an entry give the natural chain unless they say otherwise; changes in a name come on top.
UniProt Q8TDD1, whole entry, looked up: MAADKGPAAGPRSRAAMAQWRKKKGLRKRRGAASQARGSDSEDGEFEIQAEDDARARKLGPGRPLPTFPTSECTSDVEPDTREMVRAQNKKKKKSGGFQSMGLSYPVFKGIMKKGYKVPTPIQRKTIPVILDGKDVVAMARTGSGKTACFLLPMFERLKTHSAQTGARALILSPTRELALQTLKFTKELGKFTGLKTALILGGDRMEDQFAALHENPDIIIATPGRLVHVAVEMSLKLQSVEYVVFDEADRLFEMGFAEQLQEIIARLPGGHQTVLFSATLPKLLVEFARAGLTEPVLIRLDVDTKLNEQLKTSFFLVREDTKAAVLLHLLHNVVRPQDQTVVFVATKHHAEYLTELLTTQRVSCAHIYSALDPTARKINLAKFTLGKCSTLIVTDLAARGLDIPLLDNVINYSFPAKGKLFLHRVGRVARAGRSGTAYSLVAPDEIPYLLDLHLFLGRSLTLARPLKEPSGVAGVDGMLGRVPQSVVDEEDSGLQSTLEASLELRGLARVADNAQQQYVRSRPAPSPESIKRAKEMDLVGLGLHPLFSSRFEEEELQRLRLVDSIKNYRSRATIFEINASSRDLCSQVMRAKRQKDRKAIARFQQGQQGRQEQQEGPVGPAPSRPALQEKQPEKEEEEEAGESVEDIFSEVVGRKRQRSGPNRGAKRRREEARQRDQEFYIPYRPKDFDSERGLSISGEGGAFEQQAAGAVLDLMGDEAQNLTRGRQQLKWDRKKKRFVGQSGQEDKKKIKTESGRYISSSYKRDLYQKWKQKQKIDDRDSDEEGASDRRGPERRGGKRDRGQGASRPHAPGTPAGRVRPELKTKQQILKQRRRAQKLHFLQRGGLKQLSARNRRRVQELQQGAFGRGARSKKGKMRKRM
UniProt Q7L014: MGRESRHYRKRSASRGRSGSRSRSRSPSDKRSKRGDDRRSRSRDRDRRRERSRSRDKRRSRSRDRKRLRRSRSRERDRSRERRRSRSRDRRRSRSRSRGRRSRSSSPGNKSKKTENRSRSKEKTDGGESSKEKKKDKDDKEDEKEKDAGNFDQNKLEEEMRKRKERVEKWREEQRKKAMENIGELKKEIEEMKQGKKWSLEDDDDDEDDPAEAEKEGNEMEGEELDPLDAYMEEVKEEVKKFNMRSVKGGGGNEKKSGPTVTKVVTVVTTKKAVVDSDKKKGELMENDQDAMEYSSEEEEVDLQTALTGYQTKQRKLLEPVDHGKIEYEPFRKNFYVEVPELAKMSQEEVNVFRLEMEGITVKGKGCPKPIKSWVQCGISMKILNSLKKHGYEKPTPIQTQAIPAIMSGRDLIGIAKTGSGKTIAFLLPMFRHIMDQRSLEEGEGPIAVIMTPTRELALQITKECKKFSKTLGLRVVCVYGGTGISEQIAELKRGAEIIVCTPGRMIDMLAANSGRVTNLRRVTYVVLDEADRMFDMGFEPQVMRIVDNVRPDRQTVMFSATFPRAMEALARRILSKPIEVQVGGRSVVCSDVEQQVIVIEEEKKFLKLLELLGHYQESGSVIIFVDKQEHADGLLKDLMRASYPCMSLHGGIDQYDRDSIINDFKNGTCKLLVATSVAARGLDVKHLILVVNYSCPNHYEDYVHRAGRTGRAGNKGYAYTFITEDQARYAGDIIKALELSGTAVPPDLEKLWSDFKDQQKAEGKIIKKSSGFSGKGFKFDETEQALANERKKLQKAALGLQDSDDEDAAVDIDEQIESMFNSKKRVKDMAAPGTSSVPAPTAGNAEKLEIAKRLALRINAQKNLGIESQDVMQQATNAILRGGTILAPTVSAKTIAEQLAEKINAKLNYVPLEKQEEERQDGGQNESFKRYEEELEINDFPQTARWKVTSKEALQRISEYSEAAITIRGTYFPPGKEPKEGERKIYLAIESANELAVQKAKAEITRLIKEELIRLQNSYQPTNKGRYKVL
UniProt P17844: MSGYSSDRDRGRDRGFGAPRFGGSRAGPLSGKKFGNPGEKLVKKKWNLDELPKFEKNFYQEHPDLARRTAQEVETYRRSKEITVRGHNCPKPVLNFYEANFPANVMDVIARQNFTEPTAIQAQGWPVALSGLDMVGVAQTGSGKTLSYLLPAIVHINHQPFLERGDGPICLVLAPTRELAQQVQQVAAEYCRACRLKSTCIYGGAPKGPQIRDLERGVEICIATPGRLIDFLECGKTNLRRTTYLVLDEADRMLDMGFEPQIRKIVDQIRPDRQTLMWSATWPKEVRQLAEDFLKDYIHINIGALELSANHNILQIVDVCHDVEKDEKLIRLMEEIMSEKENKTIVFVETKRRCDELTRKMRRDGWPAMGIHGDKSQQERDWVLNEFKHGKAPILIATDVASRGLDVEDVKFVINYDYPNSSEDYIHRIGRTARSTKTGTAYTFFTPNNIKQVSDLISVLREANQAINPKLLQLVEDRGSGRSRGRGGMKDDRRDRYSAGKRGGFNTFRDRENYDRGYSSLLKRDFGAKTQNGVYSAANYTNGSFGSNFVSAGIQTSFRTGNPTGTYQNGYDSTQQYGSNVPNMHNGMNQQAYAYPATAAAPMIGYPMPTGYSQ
UniProt O95786: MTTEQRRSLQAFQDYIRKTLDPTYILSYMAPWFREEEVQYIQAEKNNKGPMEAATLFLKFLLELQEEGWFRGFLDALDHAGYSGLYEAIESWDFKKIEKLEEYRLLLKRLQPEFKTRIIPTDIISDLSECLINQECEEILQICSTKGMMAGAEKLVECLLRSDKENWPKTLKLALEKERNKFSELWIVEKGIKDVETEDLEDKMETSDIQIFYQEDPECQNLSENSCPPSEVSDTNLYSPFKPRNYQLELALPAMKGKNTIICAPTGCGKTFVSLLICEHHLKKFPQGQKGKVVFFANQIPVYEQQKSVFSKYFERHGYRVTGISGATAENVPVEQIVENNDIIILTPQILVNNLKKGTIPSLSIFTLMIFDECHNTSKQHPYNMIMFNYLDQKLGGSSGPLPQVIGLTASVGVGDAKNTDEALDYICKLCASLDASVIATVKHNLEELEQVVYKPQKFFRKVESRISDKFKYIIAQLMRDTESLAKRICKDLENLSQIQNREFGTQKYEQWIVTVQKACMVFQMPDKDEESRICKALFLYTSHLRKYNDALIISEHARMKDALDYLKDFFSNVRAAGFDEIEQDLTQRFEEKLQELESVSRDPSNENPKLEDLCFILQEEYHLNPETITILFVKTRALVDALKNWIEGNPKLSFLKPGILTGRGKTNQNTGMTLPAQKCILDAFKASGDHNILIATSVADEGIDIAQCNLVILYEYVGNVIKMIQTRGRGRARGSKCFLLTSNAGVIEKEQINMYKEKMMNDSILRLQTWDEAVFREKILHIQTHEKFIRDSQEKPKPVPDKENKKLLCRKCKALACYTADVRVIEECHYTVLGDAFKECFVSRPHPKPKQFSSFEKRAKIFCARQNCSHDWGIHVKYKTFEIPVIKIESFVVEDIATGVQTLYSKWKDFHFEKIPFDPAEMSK
UniProt Q92499: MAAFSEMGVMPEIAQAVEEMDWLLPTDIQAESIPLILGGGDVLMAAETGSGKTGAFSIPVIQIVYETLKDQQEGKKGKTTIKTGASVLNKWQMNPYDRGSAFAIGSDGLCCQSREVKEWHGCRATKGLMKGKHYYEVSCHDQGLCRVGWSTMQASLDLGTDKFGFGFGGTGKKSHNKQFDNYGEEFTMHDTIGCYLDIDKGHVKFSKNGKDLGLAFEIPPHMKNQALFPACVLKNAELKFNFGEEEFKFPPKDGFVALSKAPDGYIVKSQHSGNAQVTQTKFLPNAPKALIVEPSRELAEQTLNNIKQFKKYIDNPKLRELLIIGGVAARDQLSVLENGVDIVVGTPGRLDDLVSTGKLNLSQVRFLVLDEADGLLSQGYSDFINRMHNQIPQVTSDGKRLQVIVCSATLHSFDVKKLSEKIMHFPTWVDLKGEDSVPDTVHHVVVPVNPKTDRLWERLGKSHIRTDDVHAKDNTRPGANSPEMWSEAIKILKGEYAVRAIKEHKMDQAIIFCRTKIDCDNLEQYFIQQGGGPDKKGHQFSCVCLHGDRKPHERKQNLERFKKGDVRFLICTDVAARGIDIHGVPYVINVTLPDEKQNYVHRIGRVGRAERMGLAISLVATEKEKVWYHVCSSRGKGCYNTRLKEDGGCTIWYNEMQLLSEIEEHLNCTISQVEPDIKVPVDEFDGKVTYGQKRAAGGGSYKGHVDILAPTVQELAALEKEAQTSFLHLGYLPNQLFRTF
UniProt Q96GQ7: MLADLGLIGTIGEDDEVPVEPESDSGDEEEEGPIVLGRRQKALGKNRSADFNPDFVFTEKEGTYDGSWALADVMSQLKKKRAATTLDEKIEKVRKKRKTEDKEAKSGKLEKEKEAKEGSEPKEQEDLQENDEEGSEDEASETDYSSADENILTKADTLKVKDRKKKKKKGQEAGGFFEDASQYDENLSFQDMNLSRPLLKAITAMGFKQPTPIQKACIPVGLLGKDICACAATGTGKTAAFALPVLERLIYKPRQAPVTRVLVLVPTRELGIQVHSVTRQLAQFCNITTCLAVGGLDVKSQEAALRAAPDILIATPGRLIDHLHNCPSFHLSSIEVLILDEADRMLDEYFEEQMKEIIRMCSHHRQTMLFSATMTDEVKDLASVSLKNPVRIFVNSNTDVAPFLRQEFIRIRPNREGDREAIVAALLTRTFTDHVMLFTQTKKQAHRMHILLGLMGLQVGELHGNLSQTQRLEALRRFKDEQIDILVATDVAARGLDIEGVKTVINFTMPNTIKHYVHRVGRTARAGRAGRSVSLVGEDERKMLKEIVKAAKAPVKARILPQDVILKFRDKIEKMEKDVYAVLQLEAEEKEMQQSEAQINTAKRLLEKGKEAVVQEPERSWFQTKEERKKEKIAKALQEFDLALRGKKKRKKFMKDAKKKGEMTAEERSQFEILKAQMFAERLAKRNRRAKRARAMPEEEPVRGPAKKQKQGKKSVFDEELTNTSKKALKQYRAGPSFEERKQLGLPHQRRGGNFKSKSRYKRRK
UniProt Q9UJV9: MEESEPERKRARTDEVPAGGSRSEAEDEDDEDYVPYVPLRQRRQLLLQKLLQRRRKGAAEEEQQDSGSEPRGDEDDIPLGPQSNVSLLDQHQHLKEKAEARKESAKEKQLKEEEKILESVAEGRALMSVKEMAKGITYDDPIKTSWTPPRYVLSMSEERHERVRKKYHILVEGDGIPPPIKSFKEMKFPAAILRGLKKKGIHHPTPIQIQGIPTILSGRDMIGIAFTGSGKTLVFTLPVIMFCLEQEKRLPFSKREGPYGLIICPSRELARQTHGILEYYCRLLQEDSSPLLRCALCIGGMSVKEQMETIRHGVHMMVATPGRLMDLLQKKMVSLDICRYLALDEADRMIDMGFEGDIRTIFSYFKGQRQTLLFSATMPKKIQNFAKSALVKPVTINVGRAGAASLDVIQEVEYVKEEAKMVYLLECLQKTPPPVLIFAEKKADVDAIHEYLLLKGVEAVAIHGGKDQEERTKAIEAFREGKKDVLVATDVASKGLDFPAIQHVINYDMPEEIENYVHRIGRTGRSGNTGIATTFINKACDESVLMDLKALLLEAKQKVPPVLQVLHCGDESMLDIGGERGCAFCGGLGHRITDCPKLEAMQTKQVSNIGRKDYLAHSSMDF
UniProt Q96GG9: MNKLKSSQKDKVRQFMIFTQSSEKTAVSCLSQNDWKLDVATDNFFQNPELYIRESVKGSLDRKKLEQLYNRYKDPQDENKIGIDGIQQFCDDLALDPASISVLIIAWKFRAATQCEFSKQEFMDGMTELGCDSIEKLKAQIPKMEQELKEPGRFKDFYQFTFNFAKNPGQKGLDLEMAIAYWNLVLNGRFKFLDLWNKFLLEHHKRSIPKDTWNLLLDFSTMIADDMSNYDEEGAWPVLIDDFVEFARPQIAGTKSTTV
UniProt Q92841: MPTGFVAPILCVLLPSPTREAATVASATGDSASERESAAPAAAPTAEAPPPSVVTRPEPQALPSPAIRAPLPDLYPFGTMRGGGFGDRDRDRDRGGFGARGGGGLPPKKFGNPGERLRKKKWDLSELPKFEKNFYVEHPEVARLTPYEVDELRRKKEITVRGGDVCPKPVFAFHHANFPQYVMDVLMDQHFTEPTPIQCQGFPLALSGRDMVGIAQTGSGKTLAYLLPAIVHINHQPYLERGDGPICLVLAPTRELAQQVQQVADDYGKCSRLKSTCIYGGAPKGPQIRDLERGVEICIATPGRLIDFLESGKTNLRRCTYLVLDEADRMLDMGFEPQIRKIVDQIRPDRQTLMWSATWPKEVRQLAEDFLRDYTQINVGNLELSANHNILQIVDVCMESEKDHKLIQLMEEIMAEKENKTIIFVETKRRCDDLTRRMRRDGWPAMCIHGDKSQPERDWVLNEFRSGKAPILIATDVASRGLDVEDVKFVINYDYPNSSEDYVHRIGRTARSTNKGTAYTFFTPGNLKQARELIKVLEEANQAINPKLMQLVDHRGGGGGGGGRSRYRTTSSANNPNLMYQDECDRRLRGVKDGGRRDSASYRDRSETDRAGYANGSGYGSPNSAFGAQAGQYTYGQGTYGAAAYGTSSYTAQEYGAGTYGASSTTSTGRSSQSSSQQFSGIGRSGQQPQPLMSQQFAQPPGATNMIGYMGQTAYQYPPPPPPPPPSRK

Compound: CC1Cc2ccccc2N1C(=O)C1CCCN(C1)C(=O)CCl (mixture of isomers) [TRIM25 ligand 11 (diastereomer mixture)]
Assay: probe-labelled cysteine peptide fold change vs DMSO (competition) (log2 fold change); higher = less target engagement (more negative = stronger competition)
Conditions: THP-1, incubation time: 4 h
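Also: competitive chemoproteomic profiling in live THP-1 cells with an iodoacetamide desthiobiotin (IA-DTB) probe, comparing probe-labelled peptide intensities in compound-treated cells against DMSO-treated controls.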

Target	probe-labelled cysteine peptide fold change (10 µM)	probe-labelled cysteine peptide fold change (50 µM)
DDX54_Q8TDD1_389_CSTLIVTDLAAR (UniProt Q8TDD1)	0.0254	0.159
DDX54_Q8TDD1_73_LGPGRPLPTFPTSECTSDVEPDTR (UniProt Q8TDD1)	0.0359	-0.218
DDX39A_O00148_164_KNCPHVVVGTPGR (UniProt O00148)	-0.131	-0.0999
DENND6A_Q8IWF6_130_VSLHCLLDQFDK (UniProt Q8IWF6)	0.3	-0.162
DDX39A_O00148_62+86_AIVDCGFEHPSEVQHECIPQAILGMDVLCQAK (UniProt O00148)	0.305	-0.194
DDX18_Q9NVP1_329_NLQCLVIDEADR (UniProt Q9NVP1)	0.112	0.178
DDX46_Q7L014_478_VVCVYGGTGISEQIAELKR (UniProt Q7L014)	-0.0396	-0.03
DDX21_Q9NR30_418_CHWTQR (UniProt Q9NR30)	0.0562	0.19
DDX5_P17844_170_GDGPICLVLAPTR (UniProt P17844)	0.079	0.298
DDX5_P17844_354_RCDELTR (UniProt P17844)	-0.0479	0.192
DDX42_Q86XP3_339+346_ELCQQIHAECK (UniProt Q86XP3)	-0.0625	-0.045
DENND1C_Q8IV53_349_AQALLFGGYRDALVCSPGQPVTFSEEVFLAQKPGAPLQAFHR (UniProt Q8IV53)	-0.288	-0.324
DDX46_Q7L014_501_GAEIIVCTPGR (UniProt Q7L014)	0.0178	0.0119
DDX46_Q7L014_590_SVVCSDVEQQVIVIEEEK (UniProt Q7L014)	0.0692	0.0608
DDX10_Q13206_392_GLDFPAVNWVLQFDCPEDANTYIHR (UniProt Q13206)	0.113	0.0493
DDX58_O95786_428_NTDEALDYICK (UniProt O95786)	0.0328	0.169
DDX6_P26196_324_VHCLNTLFSR (UniProt P26196)	0.158	0.183
DDX1_Q92499_544_KGHQFSCVCLHGDR (UniProt Q92499)	0.0707	0.000187
DGCR8_Q8WYQ5_627_AGLLSPYQILHECLK (UniProt Q8WYQ5)	0.126	0.357
DEF6_Q9H4E7_246+253_WFQLQPSCLCYFGSEECK (UniProt Q9H4E7)	0.0464	0.143

Random excerpt: 2 entries already listed, in no set order.
Target	probe-labelled cysteine peptide fold change (10 µM)	probe-labelled cysteine peptide fold change (50 µM)
DDX46_Q7L014_501_GAEIIVCTPGR (UniProt Q7L014)	0.0178	0.0119
DDX46_Q7L014_478_VVCVYGGTGISEQIAELKR (UniProt Q7L014)	-0.0396	-0.03

Going on with the list:

Target	probe-labelled cysteine peptide fold change (10 µM)	probe-labelled cysteine peptide fold change (50 µM)
DDX1_Q92499_519_TKIDCDNLEQYFIQQGGGPDK (UniProt Q92499)	-0.0569	-0.09
DDX27_Q96GQ7_259_DICACAATGTGK (UniProt Q96GQ7)	-0.0135	0.0172
DCTPP1_Q9H773_110_CRVDLPLAVLSK (UniProt Q9H773)	-0.361	-0.184
DDX39A_O00148_62_AIVDCGFEHPSEVQHECIPQAILGMDVLCQAK (UniProt O00148)	0.064	0.0582
DDX41_Q9UJV9_338_MVSLDICR (UniProt Q9UJV9)	0.142	-0.0542
DDX41_Q9UJV9_264_EGPYGLIICPSR (UniProt Q9UJV9)	0.245	0.0445
DDX3X_O00571_468_KGADSLEDFLYHEGYACTSIHGDR (UniProt O00571)	0.0542	-0.0542
DDX24_Q9GZR7_467_CLVVDEADR (UniProt Q9GZR7)	0.1	0.105
DENND4B_O75064_815_VVLPDEVCYR (UniProt O75064)	-0.103	0.154
DDX59_Q5T1V6_345_QSSVELCGVK (UniProt Q5T1V6)	-0.151	0.074
DDX58_O95786_680_CILDAFK (UniProt O95786)	-0.00252	0.00883
DDX60L_Q5H9U9_1127_AGSVCTFLEK (UniProt Q5H9U9)	-0.139	-0.0265
DDX50_Q9BQ39_490_TGICICFYQPR (UniProt Q9BQ39)	-0.136	0.0456
DCUN1D1_Q96GG9_115_AATQCEFSK (UniProt Q96GG9)	0.0579	0.181
DDX27_Q96GQ7_248_ACIPVGLLGK (UniProt Q96GQ7)	-0.0949	-0.114
DDX17_Q92841_319_RCTYLVLDEADR (UniProt Q92841)	-0.083	0.0591
DENND4A_Q7Z401_1843_STHNCDRPPSTGVMECR (UniProt Q7Z401)	0.0493	-0.342
DDX17_Q92841_431_CDDLTR (UniProt Q92841)	-0.0934	-0.0816
DCXR_Q7Z4W1_58_ECPGIEPVCVDLGDWEATER (UniProt Q7Z4W1)	0.146	0.353
